Laboratory results from PMC8997538.

Chains of the proteins cited; added tags and fusions are not shown. Lines headed by an entry give the natural chain unless they say otherwise; changes in a name come on top.
UniProt Q9D1I2: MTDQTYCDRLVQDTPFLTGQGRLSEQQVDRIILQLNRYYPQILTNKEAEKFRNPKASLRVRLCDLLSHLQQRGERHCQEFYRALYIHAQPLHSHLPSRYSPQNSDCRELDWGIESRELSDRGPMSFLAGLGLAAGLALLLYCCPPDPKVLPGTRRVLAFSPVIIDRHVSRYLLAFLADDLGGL

How the values were obtained:
[1] = target: 3×Myc-CARD19-ΔCARD (mouse) (UniProt Q9D1I2); experiment: co-IP; lysates of macrophages stably expressing Myc-tagged constructs, precleared, 2 µg mouse anti-Myc (9E10) 16 to 20 h at 4 °C, Protein G Sepharose, three washes; 50 mM Tris-HCl pH 7.5, 150 mM NaCl, 1% Triton X-100; Western blot
[2] = target: 3×Myc-CARD19-ΔTM (mouse) (UniProt Q9D1I2); experiment: as above

B1: MIC19 (protein, UniProt Q9CRB9 1-227)
chain: MGGTASTRRVTFEADENENITVVKGIRLSENVIDRMKESSPSGSKSQRYSSVYGASVSDEDLKRRVAEELALEQAKKESEHQRRLKQARDLERERAAANEQLTRAVLRERISSEEERMKAKHLARQLEEKDRVMRKQDAFYKEQLARLEERSSEFYKVTTEEYQKAAEEVEAKFKRYEYHPVCADLQTKILQCYRQNTQQTLSCSALASQYMHCVNHAKQSMLEKGG
binding [1]: binds | binding [2]: binds weakly

B2: SAMM50 (protein, UniProt Q8BGH2 1-469)
chain: MGTVHARSLEPLPSSGTDFGALGEEAEFVEVEPEAKQEILENKDVVVQHVHFDGLGRTKDDIIICEIGEVFKAKNLIEVMRRSHEAREKLLRLGIFRQVDVLIDTCHGEDALPNGLDVTFEVTELRRLTGSYNTMVGNNEGSMVLGLKLPNLLGRAEKVTFQFSYGTKETSYGLSFFKPQPGNFERNFSVNLYKVTGQFPWSSLRETDRGVSAEYSFPLWKTSHTVKWEGVWRELGCLSRTASFAVRKESGHSLKSSLSHAMVIDSRNSSILPRRGALFKVNQELAGYTGGDVSFIKEDFELQLNKPLALDSVFSTSLWGGMLVPIGDKPSSIADRFYLGGPTSVRGFSMHSIGPQSEGDYLGGEAYWAGGLHLYTPLPFRPGQGGFGELFRTHFFLNAGNLCNLNYGEGPKAHIRKLAECIRWSYGAGVVLRLGNIARLELNYCIPMGVQGGDRICDGVQFGAGIRFL
binding [1]: binds | binding [2]: binds weakly

B3: MIC25 (protein, UniProt Q91VN4 1-273)
chain: MGSAESAEARRVSFEMDEEERVRVLQGIRLSESVVNRMKDCSQPSAGEQLVPGFGPSSSAPVPTVPLPAISVPTVPAPTTPVPTAPSSSVRGLPGGTCKGPLTDVKVPSAESGGGLQSSAVKEDLKKFQQEQLAVQDEMVRVAKKEKEAAEKHLKASLPKKKASLTHEQQQSARLARELEDREAELSRRDTFYKEQQGRIQEKNAELYKLSSQQFHEAASKAESTIKPRRVEPVCSGLQAQILRCYRDHLHEVLLCSDLVKAYQHCVSTARKG
binding [1]: binds

No constants are given. Whether binding was seen depends on the method and setting. In cells and extracts the contact can be indirect. Binding calls can cover weak binding; strength is not graded here.
